Data taken from patent US9469650B2, “Melampomagnolide B derivatives” (BOARD OF TRUSTEES OF THE UNIVERSITY OF ARKANSAS, priority 2013, dated 2016).
At least one read-out could not be matched to a standard name with certainty.

Columns and labels:
786-0 = assay: panel of 60 human tumor cell lines, growth inhibition (Renal Cancer)
HCT-116 = assay: panel of 60 human tumor cell lines, growth inhibition (Colon Cancer)
MDA-MB-468 = assay: panel of 60 human tumor cell lines, growth inhibition (Breast Cancer)
SNB-75 = assay: panel of 60 human tumor cell lines, growth inhibition (CNS Cancer)
A498 = assay: panel of 60 human tumor cell lines, growth inhibition (Renal Cancer)
NCI-H322M = assay: panel of 60 human tumor cell lines, growth inhibition (Non-Small Cell Lung Cancer)
SK-MEL-28 = assay: panel of 60 human tumor cell lines, growth inhibition (Melanoma)
OVCAR-5 = assay: panel of 60 human tumor cell lines, growth inhibition (Ovarian Cancer)
HOP-62 = assay: panel of 60 human tumor cell lines, growth inhibition (Non-Small Cell Lung Cancer)
RXF 393 = assay: panel of 60 human tumor cell lines, growth inhibition (Renal Cancer)
SF-295 = assay: panel of 60 human tumor cell lines, growth inhibition (CNS Cancer)
TK-10 = assay: panel of 60 human tumor cell lines, growth inhibition (Renal Cancer)
LOX IMVI = assay: panel of 60 human tumor cell lines, growth inhibition (Melanoma)
M14 = assay: as above
A549/ATCC = assay: panel of 60 human tumor cell lines, growth inhibition (Non-Small Cell Lung Cancer)
COLO 205 = assay: panel of 60 human tumor cell lines, growth inhibition (Colon Cancer)
SK-MEL-2 = assay: panel of 60 human tumor cell lines, growth inhibition (Melanoma)
HS 578T = assay: panel of 60 human tumor cell lines, growth inhibition (Breast Cancer); conditions: HS 578T
HCC-2998 = assay: panel of 60 human tumor cell lines, growth inhibition (Colon Cancer)
T-47D = assay: panel of 60 human tumor cell lines, growth inhibition (Breast Cancer)
SN12C = assay: panel of 60 human tumor cell lines, growth inhibition (Renal Cancer)

C=C1C(=O)O[C@H]2[C@H]1CC/C(COC(=O)OC)=C\CC[C@@]1(C)O[C@@H]21 [JVM 2-40]
Percent Growth (786-0; Log10 Concentration −4.0): −94%
Percent Growth (786-0; Log10 Concentration −5.0): 18%
Percent Growth (786-0; Log10 Concentration −6.0): 85%
Percent Growth (786-0; Log10 Concentration −7.0): 92%
Percent Growth (786-0; Log10 Concentration −8.0): 97%
Percent Growth (HCT-116; Log10 Concentration −4.0): −100%
Percent Growth (HCT-116; Log10 Concentration −5.0): 4%
Percent Growth (HCT-116; Log10 Concentration −6.0): 75%
Percent Growth (HCT-116; Log10 Concentration −7.0): 90%
Percent Growth (HCT-116; Log10 Concentration −8.0): 98%
Percent Growth (MDA-MB-468; Log10 Concentration −4.0): −77%
Percent Growth (MDA-MB-468; Log10 Concentration −5.0): −39%
Percent Growth (MDA-MB-468; Log10 Concentration −6.0): 38%
Percent Growth (MDA-MB-468; Log10 Concentration −7.0): 89%
Percent Growth (MDA-MB-468; Log10 Concentration −8.0): 94%
Percent Growth (SNB-75; Log10 Concentration −4.0): −99%
Percent Growth (SNB-75; Log10 Concentration −5.0): 34%
Percent Growth (SNB-75; Log10 Concentration −6.0): 62%
Percent Growth (SNB-75; Log10 Concentration −7.0): 68%
Percent Growth (SNB-75; Log10 Concentration −8.0): 82%
Percent Growth (A498; Log10 Concentration −4.0): −98%
Percent Growth (A498; Log10 Concentration −5.0): 56%
Percent Growth (A498; Log10 Concentration −6.0): 77%
Percent Growth (A498; Log10 Concentration −7.0): 92%
Percent Growth (A498; Log10 Concentration −8.0): 97%
Percent Growth (NCI-H322M; Log10 Concentration −4.0): −7%
Percent Growth (NCI-H322M; Log10 Concentration −5.0): 77%
Percent Growth (NCI-H322M; Log10 Concentration −6.0): 93%
Percent Growth (NCI-H322M; Log10 Concentration −7.0): 92%
Percent Growth (NCI-H322M; Log10 Concentration −8.0): 88%
Percent Growth (SK-MEL-28; Log10 Concentration −4.0): −89%
Percent Growth (SK-MEL-28; Log10 Concentration −5.0): 23%
Percent Growth (SK-MEL-28; Log10 Concentration −6.0): 84%
Percent Growth (SK-MEL-28; Log10 Concentration −7.0): 96%
Percent Growth (SK-MEL-28; Log10 Concentration −8.0): 102%
Percent Growth (OVCAR-5; Log10 Concentration −4.0): −93%
Percent Growth (OVCAR-5; Log10 Concentration −5.0): 38%
Percent Growth (OVCAR-5; Log10 Concentration −6.0): 82%
Percent Growth (OVCAR-5; Log10 Concentration −7.0): 85%
Percent Growth (OVCAR-5; Log10 Concentration −8.0): 92%
Percent Growth (HOP-62; Log10 Concentration −4.0): −83%
Percent Growth (HOP-62; Log10 Concentration −5.0): 78%
Percent Growth (HOP-62; Log10 Concentration −6.0): 87%
Percent Growth (HOP-62; Log10 Concentration −7.0): 92%
Percent Growth (HOP-62; Log10 Concentration −8.0): 94%
Percent Growth (RXF 393; Log10 Concentration −4.0): −86%
Percent Growth (RXF 393; Log10 Concentration −5.0): −13%
Percent Growth (RXF 393; Log10 Concentration −6.0): 68%
Percent Growth (RXF 393; Log10 Concentration −7.0): 100%
Percent Growth (RXF 393; Log10 Concentration −8.0): 98%
Percent Growth (SF-295; Log10 Concentration −4.0): −85%
Percent Growth (SF-295; Log10 Concentration −5.0): 69%
Percent Growth (SF-295; Log10 Concentration −6.0): 92%
Percent Growth (SF-295; Log10 Concentration −7.0): 87%
Percent Growth (SF-295; Log10 Concentration −8.0): 92%
Percent Growth (TK-10; Log10 Concentration −4.0): −100%
Percent Growth (TK-10; Log10 Concentration −5.0): 3%
Percent Growth (TK-10; Log10 Concentration −6.0): 84%
Percent Growth (TK-10; Log10 Concentration −7.0): 98%
Percent Growth (TK-10; Log10 Concentration −8.0): 94%
Percent Growth (LOX IMVI; Log10 Concentration −4.0): −85%
Percent Growth (LOX IMVI; Log10 Concentration −5.0): 11%
Percent Growth (LOX IMVI; Log10 Concentration −6.0): 94%
Percent Growth (LOX IMVI; Log10 Concentration −7.0): 96%
Percent Growth (LOX IMVI; Log10 Concentration −8.0): 97%
Percent Growth (M14; Log10 Concentration −4.0): −89%
Percent Growth (M14; Log10 Concentration −5.0): 16%
Percent Growth (M14; Log10 Concentration −6.0): 80%
Percent Growth (M14; Log10 Concentration −7.0): 84%
Percent Growth (M14; Log10 Concentration −8.0): 96%
Percent Growth (A549/ATCC; Log10 Concentration −4.0): −82%
Percent Growth (A549/ATCC; Log10 Concentration −5.0): 69%
Percent Growth (A549/ATCC; Log10 Concentration −6.0): 98%
Percent Growth (A549/ATCC; Log10 Concentration −7.0): 89%
Percent Growth (A549/ATCC; Log10 Concentration −8.0): 94%
Percent Growth (COLO 205; Log10 Concentration −4.0): −92%
Percent Growth (COLO 205; Log10 Concentration −5.0): −22%
Percent Growth (COLO 205; Log10 Concentration −6.0): 89%
Percent Growth (COLO 205; Log10 Concentration −7.0): 100%
Percent Growth (COLO 205; Log10 Concentration −8.0): 98%
Percent Growth (SK-MEL-2; Log10 Concentration −4.0): −80%
Percent Growth (SK-MEL-2; Log10 Concentration −5.0): 53%
Percent Growth (SK-MEL-2; Log10 Concentration −6.0): 93%
Percent Growth (SK-MEL-2; Log10 Concentration −7.0): 103%
Percent Growth (SK-MEL-2; Log10 Concentration −8.0): 103%
Percent Growth (HS 578T; Log10 Concentration −4.0): −21%
Percent Growth (HS 578T; Log10 Concentration −5.0): 31%
Percent Growth (HS 578T; Log10 Concentration −6.0): 90%
Percent Growth (HS 578T; Log10 Concentration −7.0): 97%
Percent Growth (HS 578T; Log10 Concentration −8.0): 96%
Percent Growth (HCC-2998; Log10 Concentration −4.0): −90%
Percent Growth (HCC-2998; Log10 Concentration −5.0): 73%
Percent Growth (HCC-2998; Log10 Concentration −6.0): 104%
Percent Growth (HCC-2998; Log10 Concentration −7.0): 99%
Percent Growth (HCC-2998; Log10 Concentration −8.0): 95%
Percent Growth (T-47D; Log10 Concentration −4.0): −65%
Percent Growth (T-47D; Log10 Concentration −5.0): 7%
Percent Growth (T-47D; Log10 Concentration −6.0): 83%
Percent Growth (T-47D; Log10 Concentration −7.0): 93%
Percent Growth (T-47D; Log10 Concentration −8.0): 93%
Percent Growth (SN12C; Log10 Concentration −4.0): −71%
Percent Growth (SN12C; Log10 Concentration −5.0): 39%
Percent Growth (SN12C; Log10 Concentration −6.0): 94%
Percent Growth (SN12C; Log10 Concentration −7.0): 99%
Percent Growth (SN12C; Log10 Concentration −8.0): 97%
